From patent publication US9821070B2 (OPKO Biologics Ltd., priority 2012, dated 2017)
At least one compound was matched to its structure with a doubt left.

Test: Obese (ob/ob) mouse model, Study 2 (MOD-6031 chronic pharmacology)
Assay type: in vivo, male ob/ob mice
Settings: Liraglutide 0.1 mg/kg bid sc for 32 days
Description: Body weight, food and water intake were recorded daily. […] Body weight, food and water intake were measured daily.
Oral glucose tolerant test (OGTT) studies were performed on days 2 and day 30 (FIGS. 10 and 11, respectively).

CCCCCCCCCCCCCCCC(=O)N[C@@H](CCC(=O)NCCCC[C@H](NC(=O)[C@H](C)NC(=O)[C@H](C)NC(=O)[C@H](CCC(N)=O)NC(=O)CNC(=O)[C@H](CCC(=O)O)NC(=O)[C@H](CC(C)C)NC(=O)[C@H](Cc1ccc(O)cc1)NC(=O)[C@H](CO)NC(=O)[C@H](CO)NC(=O)[C@@H](NC(=O)[C@H](CC(=O)O)NC(=O)[C@H](CO)NC(=O)[C@@H](NC(=O)[C@H](Cc1ccccc1)NC(=O)[C@@H](NC(=O)CNC(=O)[C@H](CCC(=O)O)NC(=O)[C@H](C)NC(=O)[C@@H](N)Cc1cnc[nH]1)[C@@H](C)O)[C@@H](C)O)C(C)C)C(=O)N[C@@H](CCC(=O)O)C(=O)N[C@@H](Cc1ccccc1)C(=O)N[C@H](C(=O)N[C@@H](C)C(=O)N[C@@H](Cc1c[nH]c2ccccc12)C(=O)N[C@@H](CC(C)C)C(=O)N[C@H](C(=O)N[C@@H](CCCNC(=N)N)C(=O)NCC(=O)N[C@@H](CCCNC(=N)N)C(=O)NCC(=O)O)C(C)C)[C@@H](C)CC)C(=O)O [liraglutide]
body weight reduction over the study: 8.3%
